According to the supplement of paper PMC6078165:

Tested on: BT20
Experiment: relative JC-1 red fluorescence (viability) vs pre-drug, coculture with fibroblast (fraction); higher = more viable cancer cells
Procedure: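 JC-1 labelled TNBC cells cocultured 1:1 (1,500 cells each) with CellTrace Violet stained primary or stromal fibroblasts in 384-well plates in FluoroBrite medium, treated with one of 42 anticancer drugs at 0.1, 1, 10 or 100 uM. JC-1 red fluorescence (mitochondrial integrity in cancer cells only) was read by plate reader every 8 h for 72 h. Values are normalised to each well's pre-drug value. The stock of one drug was tenfold lower, so its dose labels may be too high.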

CN(C)CCOc1ccc(/C(=C(/CCCl)c2ccccc2)c2ccccc2)cc1 [Toremifene]
relative JC-1 red fluorescence
Conditions	8 h	16 h	24 h	32 h	40 h	48 h	56 h	64 h	72 h
0.1 µM, coculture fibroblast: C12385	0.911	0.82	0.776	0.711	0.637	0.596	0.566	0.538	0.52
0.1 µM, coculture fibroblast: H6013	0.9253	0.89	0.857	0.811	0.778	0.763	0.768	0.753	0.745
0.1 µM, coculture fibroblast: H6019	0.87709	0.8088	0.787	0.715	0.665	0.646	0.613	0.586	0.567
0.1 µM, coculture fibroblast: H6076	0.923	0.921	0.825	0.786	0.75492	0.733	0.717	0.714	0.694
0.1 µM, coculture fibroblast: H6231	0.824	0.9138	0.76	0.69	0.641	0.595	0.558	0.526	0.497
0.1 µM, coculture fibroblast: HADF	0.845	0.8723	0.833	0.801	0.776	0.7325	0.722	0.719	0.687
0.1 µM, coculture fibroblast: HCFa	0.915	0.879	0.8406	0.785	0.743	0.704	0.679	0.65	0.6104
0.1 µM, coculture fibroblast: HCPF	0.951	0.87	0.81	0.78	0.745	0.7	0.665	0.66	0.62
0.1 µM, coculture fibroblast: HHSteC	0.925	0.855	0.818	0.734	0.684	0.635	0.599	0.573	0.54
0.1 µM, coculture fibroblast: HMF	0.949	0.861	0.773	0.7112	0.673	0.634	0.604	0.572	0.554
0.1 µM, coculture fibroblast: HPFa	0.9331	0.837	0.85	0.756	0.737	0.697	0.68	0.656	0.61
0.1 µM, coculture fibroblast: HUF	0.928	0.812	0.769	0.677	0.619	0.576	0.546	0.527	0.5
0.1 µM, coculture fibroblast: Hs5	0.928	0.883	0.795	0.739	0.697	0.656	0.617	0.577	0.549
0.1 µM, coculture fibroblast: Hs27A	0.762	0.958	0.854	0.845	0.792	0.762	0.743	0.711	0.661
0.1 µM, coculture fibroblast: Hs343T	0.956	0.8568	0.744	0.699	0.643	0.595	0.557	0.538	0.504
0.1 µM, coculture fibroblast: WS1	0.86	0.775	0.72	0.642	0.568	0.535	0.498	0.478	0.46
1 µM, coculture fibroblast: C12385	0.9283	0.894	0.81	0.758	0.71	0.684	0.663	0.639	0.621
1 µM, coculture fibroblast: H6013	0.9773	0.91738	0.894	0.87	0.833	0.814	0.812	0.801	0.782
1 µM, coculture fibroblast: H6019	0.893	0.842	0.811	0.763	0.722	0.707	0.666	0.638	0.614
1 µM, coculture fibroblast: H6076	0.7743	0.92	0.871	0.851	0.816	0.79	0.763	0.756	0.737
1 µM, coculture fibroblast: H6231	0.85	0.9343	0.85	0.796	0.766	0.715	0.681	0.66	0.634
1 µM, coculture fibroblast: HADF	0.885	0.969	0.896	0.891	0.852	0.808	0.784	0.756	0.724
1 µM, coculture fibroblast: HCFa	0.949	0.862	0.876	0.824	0.79	0.758	0.743	0.727	0.69
1 µM, coculture fibroblast: HCPF	0.7469	0.915	0.8566	0.823	0.785	0.753	0.7016	0.6956	0.6563
1 µM, coculture fibroblast: HHSteC	0.9614	0.921	0.824	0.792	0.775	0.773	0.827	0.792	0.764
1 µM, coculture fibroblast: HMF	0.737	0.953	0.826	0.774	0.719	0.676	0.64	0.6	0.57
1 µM, coculture fibroblast: HPFa	0.9386	0.882	0.906	0.832	0.807	0.772	0.742	0.71	0.66
1 µM, coculture fibroblast: HUF	0.951	0.884	0.8328	0.755	0.706	0.657	0.627	0.613	0.596
1 µM, coculture fibroblast: Hs5	0.8318	0.958	0.847	0.79	0.7436	0.7067	0.667	0.622	0.586
1 µM, coculture fibroblast: Hs27A	0.886	0.891	0.816	0.867	0.86	0.879	0.842	0.773	0.822
1 µM, coculture fibroblast: Hs343T	0.76	0.951	0.8558	0.7875	0.7185	0.6599	0.607	0.584	0.546
1 µM, coculture fibroblast: WS1	0.8889	0.835	0.749	0.665	0.606	0.571	0.533	0.505	0.491
10 µM, coculture fibroblast: C12385	0.88404	0.827	0.776	0.713	0.66	0.642	0.613	0.5884	0.566
10 µM, coculture fibroblast: H6013	0.917	0.815	0.939	0.928	0.903	0.844	0.828	0.785	0.758
10 µM, coculture fibroblast: H6019	0.856	0.815	0.778	0.723	0.678	0.646	0.609	0.577	0.547
10 µM, coculture fibroblast: H6076	0.771	0.788	0.9257	0.86554	0.7934	0.745	0.697	0.6845	0.652
10 µM, coculture fibroblast: H6231	0.81	0.876	0.906	0.844	0.7959	0.744	0.719	0.6796	0.642
10 µM, coculture fibroblast: HADF	0.861	0.87	0.91	0.93	0.898	0.877	0.851	0.828	0.797
10 µM, coculture fibroblast: HCFa	0.839	0.842	0.829	0.862	0.888	0.791	0.812	0.814	0.768
10 µM, coculture fibroblast: HCPF	0.846	0.954	0.926	0.8613	0.8153	0.787	0.731	0.72	0.686
10 µM, coculture fibroblast: HHSteC	0.94942	0.912	0.89	0.836	0.793	0.771	0.734	0.73	0.711
10 µM, coculture fibroblast: HMF	0.816	0.847	0.94	0.887	0.845	0.793	0.76	0.721	0.692
10 µM, coculture fibroblast: HPFa	0.95	0.916	0.764	0.876	0.845	0.822	0.791	0.771	0.733
10 µM, coculture fibroblast: HUF	0.89668	0.839	0.824	0.755	0.723	0.698	0.673	0.647	0.622
10 µM, coculture fibroblast: Hs5	0.717	0.821	0.9418	0.881	0.8024	0.75	0.696	0.658	0.634
10 µM, coculture fibroblast: Hs27A	0.766	0.73	0.952	0.823	0.9	0.838	0.931	0.903	0.866
10 µM, coculture fibroblast: Hs343T	0.742	0.709	0.9512	0.9064	0.856	0.808	0.731	0.695	0.655
10 µM, coculture fibroblast: WS1	0.913	0.906	0.902	0.905	0.81	0.82	0.806	0.885	0.84
100 µM, coculture fibroblast: C12385	0.452	0.335	0.322	0.27	0.202	0.174	0.143	0.12	0.0927
100 µM, coculture fibroblast: H6013	0.614	0.505	0.591	0.4662	0.414	0.367	0.355	0.317	0.263
100 µM, coculture fibroblast: H6019	0.455	0.362	0.38	0.334	0.286	0.26	0.233	0.209	0.187
100 µM, coculture fibroblast: H6076	0.568	0.485	0.445	0.404	0.374	0.333	0.298	0.258	0.206
100 µM, coculture fibroblast: H6231	0.464	0.334	0.273	0.233	0.208	0.174	0.14	0.113	0.0844
100 µM, coculture fibroblast: HADF	0.453	0.306	0.349	0.244	0.217	0.171	0.152	0.13	0.0894
100 µM, coculture fibroblast: HCFa	0.652	0.52	0.587	0.489	0.462	0.434	0.42	0.392	0.352
100 µM, coculture fibroblast: HCPF	0.584	0.493	0.426	0.387	0.356	0.31	0.271	0.232	0.171
100 µM, coculture fibroblast: HHSteC	0.403	0.302	0.328	0.233	0.196	0.164	0.142	0.11	0.0658
100 µM, coculture fibroblast: HMF	0.603	0.555	0.54	0.492	0.469	0.409	0.374	0.329	0.267
100 µM, coculture fibroblast: HPFa	0.539	0.445	0.502	0.422	0.399	0.362	0.348	0.328	0.274
100 µM, coculture fibroblast: HUF	0.568	0.419	0.439	0.399	0.377	0.348	0.34	0.322	0.305
100 µM, coculture fibroblast: Hs5	0.666	0.694	0.663	0.611	0.576	0.518	0.467	0.409	0.341
100 µM, coculture fibroblast: Hs27A	0.557	0.427	0.486	0.335	0.295	0.267	0.246	0.219	0.175
100 µM, coculture fibroblast: Hs343T	0.453	0.317	0.304	0.268	0.25	0.213	0.183	0.152	0.11
100 µM, coculture fibroblast: WS1	0.297	0.196	0.195	0.15	0.109	0.0853	0.0619	0.044	0.0225

The reference is the same well before dosing, and untreated signal decays as well.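 Fibroblast labels name human fibroblasts: mostly primary ones from tissues such as uterus (C12385, HUF), lung (H6013), bone (Hs27A), adrenal (HADF) and skin (WS1), plus mammary HMF and breast cancer-associated Hs343T. The cancer cells are basal-like or mesenchymal-like triple-negative breast cancer lines. The paper calls a changed response a hit when it shifts by more than 3x the replicate standard deviation. The tissue of the other fibroblasts is not given here.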
